Measurements: PMC10701685

The chains behind the UniProt entries cited, without tags or fusion partners. Residues count along the entry.
UniProt P33897: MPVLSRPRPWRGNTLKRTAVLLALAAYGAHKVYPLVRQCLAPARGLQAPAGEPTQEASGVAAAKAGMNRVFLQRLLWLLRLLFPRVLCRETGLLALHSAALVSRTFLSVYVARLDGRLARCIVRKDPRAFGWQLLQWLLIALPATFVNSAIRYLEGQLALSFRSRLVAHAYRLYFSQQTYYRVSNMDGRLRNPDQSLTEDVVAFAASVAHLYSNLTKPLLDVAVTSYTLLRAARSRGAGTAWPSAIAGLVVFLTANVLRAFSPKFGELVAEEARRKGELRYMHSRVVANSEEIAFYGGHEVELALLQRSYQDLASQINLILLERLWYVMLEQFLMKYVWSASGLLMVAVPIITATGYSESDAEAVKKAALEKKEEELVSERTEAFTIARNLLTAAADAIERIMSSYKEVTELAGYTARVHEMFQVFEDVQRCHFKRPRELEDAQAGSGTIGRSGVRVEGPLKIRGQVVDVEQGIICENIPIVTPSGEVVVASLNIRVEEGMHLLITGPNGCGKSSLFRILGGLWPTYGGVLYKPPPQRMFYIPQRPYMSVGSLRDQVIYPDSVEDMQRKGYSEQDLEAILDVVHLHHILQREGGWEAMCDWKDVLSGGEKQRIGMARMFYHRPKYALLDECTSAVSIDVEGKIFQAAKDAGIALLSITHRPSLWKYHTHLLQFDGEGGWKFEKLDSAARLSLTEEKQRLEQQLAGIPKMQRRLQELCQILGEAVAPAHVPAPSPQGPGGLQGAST
UniProt Q99700: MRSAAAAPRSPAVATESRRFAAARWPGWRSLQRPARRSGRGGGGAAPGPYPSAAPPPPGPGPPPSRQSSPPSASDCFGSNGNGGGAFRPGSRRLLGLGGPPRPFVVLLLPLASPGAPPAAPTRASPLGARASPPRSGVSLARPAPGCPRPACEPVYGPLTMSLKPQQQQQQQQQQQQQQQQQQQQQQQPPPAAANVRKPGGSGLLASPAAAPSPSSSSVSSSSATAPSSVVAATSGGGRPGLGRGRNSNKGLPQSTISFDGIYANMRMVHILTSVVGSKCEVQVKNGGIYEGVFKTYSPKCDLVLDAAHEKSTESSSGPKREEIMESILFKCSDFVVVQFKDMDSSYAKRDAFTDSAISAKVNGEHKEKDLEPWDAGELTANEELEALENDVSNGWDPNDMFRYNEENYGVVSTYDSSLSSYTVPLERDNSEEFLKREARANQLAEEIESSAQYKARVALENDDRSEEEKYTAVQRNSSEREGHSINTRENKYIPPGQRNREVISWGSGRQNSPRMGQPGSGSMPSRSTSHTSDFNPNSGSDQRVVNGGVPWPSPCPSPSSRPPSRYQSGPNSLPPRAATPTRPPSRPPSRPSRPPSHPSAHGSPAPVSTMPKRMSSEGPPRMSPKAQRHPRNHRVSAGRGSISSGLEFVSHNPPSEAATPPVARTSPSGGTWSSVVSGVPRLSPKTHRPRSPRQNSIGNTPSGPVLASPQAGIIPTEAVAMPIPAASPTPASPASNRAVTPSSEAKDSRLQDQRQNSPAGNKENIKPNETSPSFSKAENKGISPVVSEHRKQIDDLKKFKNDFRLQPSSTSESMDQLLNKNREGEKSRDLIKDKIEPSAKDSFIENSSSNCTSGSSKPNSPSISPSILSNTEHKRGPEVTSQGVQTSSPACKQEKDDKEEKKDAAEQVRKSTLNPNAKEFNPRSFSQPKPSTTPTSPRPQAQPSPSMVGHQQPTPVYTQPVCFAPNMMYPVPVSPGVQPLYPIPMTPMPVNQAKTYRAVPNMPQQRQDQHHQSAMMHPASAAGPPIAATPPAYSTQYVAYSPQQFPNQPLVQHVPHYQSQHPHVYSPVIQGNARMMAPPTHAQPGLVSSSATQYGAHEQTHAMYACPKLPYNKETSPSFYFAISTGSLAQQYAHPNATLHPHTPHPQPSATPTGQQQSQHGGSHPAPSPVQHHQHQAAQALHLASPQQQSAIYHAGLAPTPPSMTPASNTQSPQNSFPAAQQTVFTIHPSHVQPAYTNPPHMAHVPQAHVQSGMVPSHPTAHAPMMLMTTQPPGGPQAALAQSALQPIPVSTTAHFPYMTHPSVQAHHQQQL
UniProt O60826: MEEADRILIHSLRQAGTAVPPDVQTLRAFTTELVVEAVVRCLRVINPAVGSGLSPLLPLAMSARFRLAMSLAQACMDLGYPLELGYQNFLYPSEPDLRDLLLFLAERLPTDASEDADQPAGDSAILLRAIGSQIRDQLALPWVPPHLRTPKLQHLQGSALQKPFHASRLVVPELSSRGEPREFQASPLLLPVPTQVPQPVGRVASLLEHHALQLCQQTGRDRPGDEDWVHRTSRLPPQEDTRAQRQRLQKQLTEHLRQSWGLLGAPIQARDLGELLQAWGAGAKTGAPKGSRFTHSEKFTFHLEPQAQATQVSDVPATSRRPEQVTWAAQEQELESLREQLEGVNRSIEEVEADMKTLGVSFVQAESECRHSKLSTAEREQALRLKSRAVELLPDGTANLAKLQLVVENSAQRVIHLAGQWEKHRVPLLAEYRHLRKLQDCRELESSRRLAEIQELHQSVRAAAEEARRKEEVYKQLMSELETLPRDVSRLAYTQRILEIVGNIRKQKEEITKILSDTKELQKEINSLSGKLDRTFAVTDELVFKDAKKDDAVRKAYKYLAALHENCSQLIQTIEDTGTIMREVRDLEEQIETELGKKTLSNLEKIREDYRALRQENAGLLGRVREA
UniProt Q9BQ67: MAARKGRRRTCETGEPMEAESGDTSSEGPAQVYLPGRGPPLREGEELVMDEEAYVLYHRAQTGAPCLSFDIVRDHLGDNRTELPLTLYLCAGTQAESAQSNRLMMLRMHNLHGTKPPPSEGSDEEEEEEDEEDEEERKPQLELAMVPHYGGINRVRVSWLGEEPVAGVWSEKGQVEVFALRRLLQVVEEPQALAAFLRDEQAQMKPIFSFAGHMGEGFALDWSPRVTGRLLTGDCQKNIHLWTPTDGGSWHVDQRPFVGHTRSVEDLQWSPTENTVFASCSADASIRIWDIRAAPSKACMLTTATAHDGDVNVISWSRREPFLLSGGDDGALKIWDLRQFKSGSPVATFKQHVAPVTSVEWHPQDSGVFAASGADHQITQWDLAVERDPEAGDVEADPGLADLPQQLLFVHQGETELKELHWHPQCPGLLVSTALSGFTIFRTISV
UniProt Q9NX14, residues 30-153: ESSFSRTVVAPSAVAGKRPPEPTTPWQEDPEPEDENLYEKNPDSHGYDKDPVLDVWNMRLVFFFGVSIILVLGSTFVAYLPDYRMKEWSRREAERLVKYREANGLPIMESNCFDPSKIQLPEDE
UniProt Q96IZ0: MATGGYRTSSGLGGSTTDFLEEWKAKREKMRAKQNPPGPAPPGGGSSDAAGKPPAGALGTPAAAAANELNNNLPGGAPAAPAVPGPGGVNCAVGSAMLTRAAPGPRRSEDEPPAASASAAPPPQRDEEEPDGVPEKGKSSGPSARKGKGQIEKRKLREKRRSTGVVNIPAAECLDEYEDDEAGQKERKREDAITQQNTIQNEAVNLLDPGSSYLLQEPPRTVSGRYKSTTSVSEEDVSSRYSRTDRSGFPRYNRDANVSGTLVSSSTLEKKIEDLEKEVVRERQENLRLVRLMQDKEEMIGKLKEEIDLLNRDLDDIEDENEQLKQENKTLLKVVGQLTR
UniProt Q12972: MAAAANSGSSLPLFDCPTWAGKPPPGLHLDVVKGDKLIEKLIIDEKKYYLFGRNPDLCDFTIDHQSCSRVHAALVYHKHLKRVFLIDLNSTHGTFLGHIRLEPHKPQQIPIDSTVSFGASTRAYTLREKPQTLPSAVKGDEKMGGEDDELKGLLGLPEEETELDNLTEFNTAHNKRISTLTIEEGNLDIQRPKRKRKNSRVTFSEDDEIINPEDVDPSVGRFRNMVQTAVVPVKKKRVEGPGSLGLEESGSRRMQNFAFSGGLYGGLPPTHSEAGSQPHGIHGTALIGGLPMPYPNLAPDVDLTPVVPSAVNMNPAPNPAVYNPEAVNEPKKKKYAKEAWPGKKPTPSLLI
UniProt Q9UL25: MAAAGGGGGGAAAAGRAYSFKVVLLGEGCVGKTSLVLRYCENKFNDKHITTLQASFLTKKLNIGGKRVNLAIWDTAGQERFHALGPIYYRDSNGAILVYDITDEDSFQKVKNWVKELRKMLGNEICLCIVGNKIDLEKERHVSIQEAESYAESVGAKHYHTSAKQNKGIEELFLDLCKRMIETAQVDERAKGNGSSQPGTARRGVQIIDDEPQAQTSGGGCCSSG

T1: Strep/FLAG-tagged TTC30A wildtype (human) (UniProt Q86WT1)
T1 sequence: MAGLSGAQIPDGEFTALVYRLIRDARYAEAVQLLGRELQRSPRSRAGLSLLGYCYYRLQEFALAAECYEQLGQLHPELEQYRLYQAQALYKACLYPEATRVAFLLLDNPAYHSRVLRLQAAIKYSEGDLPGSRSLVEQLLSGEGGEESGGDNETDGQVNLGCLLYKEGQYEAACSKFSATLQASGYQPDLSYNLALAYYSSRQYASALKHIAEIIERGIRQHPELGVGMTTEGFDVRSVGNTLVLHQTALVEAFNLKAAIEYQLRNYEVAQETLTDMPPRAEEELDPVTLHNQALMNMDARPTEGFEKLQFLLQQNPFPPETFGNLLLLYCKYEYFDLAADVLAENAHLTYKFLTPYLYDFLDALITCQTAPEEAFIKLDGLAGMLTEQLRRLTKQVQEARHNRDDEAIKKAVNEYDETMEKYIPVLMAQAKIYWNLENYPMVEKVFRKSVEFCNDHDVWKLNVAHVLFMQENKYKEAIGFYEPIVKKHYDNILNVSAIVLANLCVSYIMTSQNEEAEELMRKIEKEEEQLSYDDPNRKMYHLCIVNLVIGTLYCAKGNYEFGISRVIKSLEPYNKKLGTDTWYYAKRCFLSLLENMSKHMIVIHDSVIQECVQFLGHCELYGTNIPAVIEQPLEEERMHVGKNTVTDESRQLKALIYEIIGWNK

T2: Strep/FLAG-tagged TTC30A A375V (human) (UniProt Q86WT1)
T2 sequence: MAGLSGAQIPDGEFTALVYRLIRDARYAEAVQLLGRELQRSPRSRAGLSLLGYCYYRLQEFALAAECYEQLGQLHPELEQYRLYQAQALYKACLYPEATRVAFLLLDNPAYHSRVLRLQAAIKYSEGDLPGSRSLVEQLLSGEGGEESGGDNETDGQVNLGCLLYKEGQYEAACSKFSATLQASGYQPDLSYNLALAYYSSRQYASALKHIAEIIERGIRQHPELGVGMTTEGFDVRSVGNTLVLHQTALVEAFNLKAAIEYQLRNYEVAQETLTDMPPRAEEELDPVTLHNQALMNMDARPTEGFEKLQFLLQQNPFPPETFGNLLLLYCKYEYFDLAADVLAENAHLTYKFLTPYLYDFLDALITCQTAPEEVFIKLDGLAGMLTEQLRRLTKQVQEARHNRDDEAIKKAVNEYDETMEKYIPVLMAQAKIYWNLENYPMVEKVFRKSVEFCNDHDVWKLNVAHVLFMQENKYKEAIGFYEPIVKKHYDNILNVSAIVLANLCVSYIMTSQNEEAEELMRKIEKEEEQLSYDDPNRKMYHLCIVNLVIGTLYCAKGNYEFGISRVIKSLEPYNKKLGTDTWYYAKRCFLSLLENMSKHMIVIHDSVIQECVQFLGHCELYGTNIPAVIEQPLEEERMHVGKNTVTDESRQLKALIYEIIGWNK


Experiments:
[1] = target: T1, Strep/FLAG-tagged TTC30A wildtype (human); test: affinity purification with mass spectrometry; Strep/FLAG-tagged bait in lysate of transiently transfected HEK293T (1x TBS, 0.5% Nonidet-P40) on Strep-Tactin Superflow 1.5 h, three washes, Strep elution buffer; LC-MS/MS, label-free quantification, six biological replicates; Strep/FLAG-tagged RAF1 as control
[2] = target: T2, Strep/FLAG-tagged TTC30A A375V (human); test: as above

| Molecule | binding [1] | binding [2] |
| --- | --- | --- |
| ABCD1 (from UniProt P33897 1-745) | binds | binds |
| ATXN2 (from UniProt Q99700 1-1313) | binds | binds |
| CCDC22 (from UniProt O60826 1-627) | binds | binds |
| GRWD1 (from UniProt Q9BQ67 1-446) | binds | binds |
| NDUFB11 (from UniProt Q9NX14 30-153) | binds | binds |
| PAWR (from UniProt Q96IZ0 1-340) | binds | binds |
| PPP1R8 (from UniProt Q12972 1-351) | binds | binds |
| RAB21 (from UniProt Q9UL25 1-225) | binds | binds |
| RAP1GDS1 (protein, UniProt P52306 1-607) MDNLSDTLKKLKITAVDKTEDSLEGCLDCLLQALAQNNTETSEKIQASGILQLFASLLTPQSSCKAKVANIIAEVAKNEFMRIPCVDAGLISPLVQLLNSKDQEVLLQTGRALGNICYDSHEGRSAVDQAGGAQIVIDHLRSLCSITDPANEKLLTVFCGMLMNYSNENDSLQAQLINMGVIPTLVKLLGIHCQNAALTEMCLVAFGNLAELESSKEQFASTNIAEELVKLFKKQIEHDKREMIFEVLAPLAENDAIKLQLVEAGLVECLLEIVQQKVDSDKEDDITELKTGSDLMVLLLLGDESMQKLFEGGKGSVFQRVLSWIPSNNHQLQLAGALAIANFARNDANCIHMVDNGIVEKLMDLLDRHVEDGNVTVQHAALSALRNLAIPVINKAKMLSAGVTEAVLKFLKSEMPPVQFKLLGTLRMLIDAQAEAAEQLGKNVKLVERLVEWCEAKDHAGVMGESNRLLSALIRHSKSKDVIKTIVQSGGIKHLVTMATSEHVIMQNEALVALALIAALELGTAEKDLESAKLVQILHRLLADERSAPEIKYNSMVLICALMGSECLHKEVQDLAFLDVVSKLRSHENKSVAQQASLTEQRLTVES | binds | binds |
| SLC35F6 (protein, UniProt Q8N357 19-371) SINTLSAKWADNFMAEGCGGSKEHSFQHPFLQAVGMFLGEFSCLAAFYLLRCRAAGQSDSSVDPQQPFNPLLFLPPALCDMTGTSLMYVALNMTSASSFQMLRGAVIIFTGLFSVAFLGRRLVLSQWLGILATIAGLVVVGLADLLSKHDSQHKLSEVITGDLLIIMAQIIVAIQMVLEEKFVYKHNVHPLRAVGTEGLFGFVILSLLLVPMYYIPAGSFSGNPRGTLEDALDAFCQVGQQPLIAVALLGNISSIAFFNFAGISVTKELSATTRMVLDSLRTVVIWALSLALGWEAFHALQILGFLILLIGTALYNGLHRPLLGRLSRGRPLAEESEQERLLGGTRTPINDAS | binds | binds |
| SPNS1 (protein, UniProt Q9H2V7 1-528) MAGSDTAPFLSQADDPDDGPVPGTPGLPGSTGNPKSEEPEVPDQEGLQRITGLSPGRSALIVAVLCYINLLNYMDRFTVAGVLPDIEQFFNIGDSSSGLIQTVFISSYMVLAPVFGYLGDRYNRKYLMCGGIAFWSLVTLGSSFIPGEHFWLLLLTRGLVGVGEASYSTIAPTLIADLFVADQRSRMLSIFYFAIPVGSGLGYIAGSKVKDMAGDWHWALRVTPGLGVVAVLLLFLVVREPPRGAVERHSDLPPLNPTSWWADLRALARNPSFVLSSLGFTAVAFVTGSLALWAPAFLLRSRVVLGETPPCLPGDSCSSSDSLIFGLITCLTGVLGVGLGVEISRRLRHSNPRADPLVCATGLLGSAPFLFLSLACARGSIVATYIFIFIGETLLSMNWAIVADILLYVVIPTRRSTAEAFQIVLSHLLGDAGSPYLIGLISDRLRRNWPPSFLSEFRALQFSLMLCAFVGALGGAAFLGTAIFIEADRRRAQLHVQGLLHEAGSTDDRIVVPQRGRSTRVPVASVLI | binds | binds |
| USMG5 (protein, UniProt Q96IX5 1-58) MAGPESDAQYQFTGIKKYFNSYTLTGRMNCVLATYGSIALIVLYFKLRSKKTPAVKAT | binds | binds |
| HNRNPLL (protein, UniProt Q8WVV9 1-542) MSSSSSSPRETYEEDREYESQAKRLKTEEGEIDYSAEEGENRREATPRGGGDGGGGGRSFSQPEAGGSHHKVSVSPVVHVRGLCESVVEADLVEALEKFGTICYVMMMPFKRQALVEFENIDSAKECVTFAADEPVYIAGQQAFFNYSTSKRITRPGNTDDPSGGNKVLLLSIQNPLYPITVDVLYTVCNPVGKVQRIVIFKRNGIQAMVEFESVLCAQKAKAALNGADIYAGCCTLKIEYARPTRLNVIRNDNDSWDYTKPYLGRRDRGKGRQRQAILGEHPSSFRHDGYGSHGPLLPLPSRYRMGSRDTPELVAYPLPQASSSYMHGGNPSGSVVMVSGLHQLKMNCSRVFNLFCLYGNIEKVKFMKTIPGTALVEMGDEYAVERAVTHLNNVKLFGKRLNVCVSKQHSVVPSQIFELEDGTSSYKDFAMSKNNRFTSAGQASKNIIQPPSCVLHYYNVPLCVTEETFTKLCNDHEVLTFIKYKVFDAKPSAKTLSGLLEWECKTDAVEALTALNHYQIRVPNGSNPYTLKLCFSTSSHL | binds | binds |
| VPS11 (protein, UniProt Q9H270 1-941) MAAYLQWRRFVFFDKELVKEPLSNDGAAPGATPASGSAASKFLCLPPGITVCDSGRGSLVFGDMEGQIWFLPRSLQLTGFQAYKLRVTHLYQLKQHNILASVGEDEEGINPLVKIWNLEKRDGGNPLCTRIFPAIPGTEPTVVSCLTVHENLNFMAIGFTDGSVTLNKGDITRDRHSKTQILHKGNYPVTGLAFRQAGKTTHLFVVTTENVQSYIVSGKDYPRVELDTHGCGLRCSALSDPSQDLQFIVAGDECVYLYQPDERGPCFAFEGHKLIAHWFRGYLIIVSRDRKVSPKSEFTSRDSQSSDKQILNIYDLCNKFIAYSTVFEDVVDVLAEWGSLYVLTRDGRVHALQEKDTQTKLEMLFKKNLFEMAINLAKSQHLDSDGLAQIFMQYGDHLYSKGNHDGAVQQYIRTIGKLEPSYVIRKFLDAQRIHNLTAYLQTLHRQSLANADHTTLLLNCYTKLKDSSKLEEFIKKKSESEVHFDVETAIKVLRQAGYYSHALYLAENHAHHEWYLKIQLEDIKNYQEALRYIGKLPFEQAESNMKRYGKILMHHIPEQTTQLLKGLCTDYRPSLEGRSDREAPGCRANSEEFIPIFANNPRELKAFLEHMSEVQPDSPQGIYDTLLELRLQNWAHEKDPQVKEKLHAEAISLLKSGRFCDVFDKALVLCQMHDFQDGVLYLYEQGKLFQQIMHYHMQHEQYRQVISVCERHGEQDPSLWEQALSYFARKEEDCKEYVAAVLKHIENKNLMPPLLVVQTLAHNSTATLSVIRDYLVQKLQKQSQQIAQDELRVRRYREETTRIRQEIQELKASPKIFQKTKCSICNSALELPSVHFLCGHSFHQHCFESYSESDADCPTCLPENRKVMDMIRAQEQKRDLHDQFQHQLKCSNDSFSVIADYFGRGVFNKLTLLTDPPTARLTSSLEAGLQRDLLMHSRRGT | binds | binds |
| PDXDC1 (protein, UniProt Q6P996 1-788) MDASLEKIADPTLAEMGKNLKEAVKMLEDSQRRTEEENGKKLISGDIPGPLQGSGQDMVSILQLVQNLMHGDEDEEPQSPRIQNIGEQGHMALLGHSLGAYISTLDKEKLRKLTTRILSDTTLWLCRIFRYENGCAYFHEEEREGLAKICRLAIHSRYEDFVVDGFNVLYNKKPVIYLSAAARPGLGQYLCNQLGLPFPCLCRVPCNTVFGSQHQMDVAFLEKLIKDDIERGRLPLLLVANAGTAAVGHTDKIGRLKELCEQYGIWLHVEGVNLATLALGYVSSSVLAAAKCDSMTMTPGPWLGLPAVPAVTLYKHDDPALTLVAGLTSNKPTDKLRALPLWLSLQYLGLDGFVERIKHACQLSQRLQESLKKVNYIKILVEDELSSPVVVFRFFQELPGSDPVFKAVPVPNMTPSGVGRERHSCDALNRWLGEQLKQLVPASGLTVMDLEAEGTCLRFSPLMTAAVLGTRGEDVDQLVACIESKLPVLCCTLQLREEFKQEVEATAGLLYVDDPNWSGIGVVRYEHANDDKSSLKSDPEGENIHAGLLKKLNELESDLTFKIGPEYKSMKSCLYVGMASDNVDAAELVETIAATAREIEENSRLLENMTEVVRKGIQEAQVELQKASEERLLEEGVLRQIPVVGSVLNWFSPVQALQKGRTFNLTAGSLESTEPIYVYKAQGAGVTLPPTPSGSRTKQRLPGQKPFKRSLRGSDALSETSSVSHIEDLEKVERLSSGPEQITLEASSTEGHPGAPSPQHTDQTEAFQKGVPHPEDDHSQVEGPESLR | binds | binds |

Results are given in words; binding and its absence hold for the method and conditions named. In cells and extracts the contact can be indirect. Here binding means that the protein was enriched with, or labelled near, the bait; the list need not be complete. Sequences can lack the tags named with a protein.
